This is an account of results in US20250042970A1.

Amino acid sequences for entries named in this document (tags omitted). A change or cut given only in a name is not applied to a line headed by its entry.
UniProt Q02223: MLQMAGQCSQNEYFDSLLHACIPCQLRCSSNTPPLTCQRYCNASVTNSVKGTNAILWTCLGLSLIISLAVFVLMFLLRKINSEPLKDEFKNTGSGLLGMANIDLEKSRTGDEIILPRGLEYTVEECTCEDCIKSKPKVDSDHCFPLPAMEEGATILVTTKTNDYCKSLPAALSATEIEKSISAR

For this experiment, the target named is FLAG-tagged cynomolgous APRIL (cynomolgus monkey). Kind of experiment: SPR vs BAv8-10.

No constants are given. Whether binding was seen depends on the method and setting. Some entries that bind do so weakly or less than the wild type.

With “BAv73-Ig (from UniProt Q02223 5-54) (Fc fusion)”, the binding entry is “binds”. For “BAv14-Ig (from UniProt Q02223 5-54) (Fc fusion)” the value was “binds”; for “BAv22-Ig (from UniProt Q02223 5-54) (Fc fusion)”, “binds”. As for “BAv86-Ig (from UniProt Q02223 5-54) (Fc fusion)”, the binding entry is given as “binds”. On to “BAv80-Ig (from UniProt Q02223 5-54) (Fc fusion)”, for which the binding entry was “binds”. For “BAv41-Ig (from UniProt Q02223 5-54) (Fc fusion)” the value was “binds”; for “BAv44-Ig (from UniProt Q02223 5-54) (Fc fusion)”, “binds”.

Turning to “BAv20-Ig (from UniProt Q02223 5-54) (Fc fusion)”, the binding result is reported as “binds”. For “BAv13-Ig (from UniProt Q02223 5-54) (Fc fusion)”, the binding result was “binds”. For “BAv50-Ig (from UniProt Q02223 5-54) (Fc fusion)”, the binding result is “binds”. The result for “BAv21-Ig (from UniProt Q02223 5-54) (Fc fusion)” reads “binds”. The result for “BAv34-Ig (from UniProt Q02223 5-54) (Fc fusion)” reads “binds”; that for “BAv48-Ig (from UniProt Q02223 5-54) (Fc fusion)”, “binds”. For “BAv52-Ig (from UniProt Q02223 5-54) (Fc fusion)” the value was “binds”.

Take “BAv32-Ig (from UniProt Q02223 5-54) (Fc fusion)”: the binding result is “binds”.

In the case of “BAv39-Ig (from UniProt Q02223 5-54) (Fc fusion)”, the binding result is “binds”. As for “BAv37-Ig (from UniProt Q02223 5-54) (Fc fusion)”, the binding result is “binds”. Regarding “BAv62-Ig (from UniProt Q02223 5-54) (Fc fusion)”, the binding entry was “binds”. As for “BAv18-Ig (from UniProt Q02223 5-54) (Fc fusion)”, the binding result was “binds”. With “BAv36-Ig (from UniProt Q02223 5-54) (Fc fusion)”, the binding result is on record as “binds”. For “BAv43-Ig (from UniProt Q02223 5-54) (Fc fusion)” the value was “binds”; for “BAv87-Ig (from UniProt Q02223 5-54) (Fc fusion)”, “binds”; for “BAv33-Ig (from UniProt Q02223 5-54) (Fc fusion)”, “binds”. For “BAv23-Ig (from UniProt Q02223 5-54) (Fc fusion)” the value was “binds”. For “BAv17-Ig (from UniProt Q02223 5-54) (Fc fusion)” the value was “binds”. For “BAv15-Ig (from UniProt Q02223 5-54) (Fc fusion)”, the binding entry was “binds”. As to “BAv19-Ig (from UniProt Q02223 5-54) (Fc fusion)”, the binding entry was “binds”. The result for “BAv57-Ig (from UniProt Q02223 5-54) (Fc fusion)” reads “binds”; that for “BAv65-Ig (from UniProt Q02223 5-54) (Fc fusion)”, “binds”. For “BAv84-Ig (from UniProt Q02223 5-54) (Fc fusion)” the value was “binds”; for “BAv16-Ig (from UniProt Q02223 5-54) (Fc fusion)”, “binds”; for “BAv27-Ig (from UniProt Q02223 5-54) (Fc fusion)”, “binds”. Consider “BAv28-Ig (from UniProt Q02223 5-54) (Fc fusion)”, for which the binding entry is listed as “binds”. For “BAv47-Ig (from UniProt Q02223 5-54) (Fc fusion)” the value was “binds”; for “BAv31-Ig (from UniProt Q02223 5-54) (Fc fusion)”, “binds”; for “BAv35-Ig (from UniProt Q02223 5-54) (Fc fusion)”, “binds”. As to “BAv29-Ig (from UniProt Q02223 5-54) (Fc fusion)”, the binding entry is “binds”. As for “BAv88-Ig (from UniProt Q02223 5-54) (Fc fusion)”, the binding entry is listed as “binds”. For “BAv30-Ig (from UniProt Q02223 5-54) (Fc fusion)” the value was “binds”; for “BAv24-Ig (from UniProt Q02223 5-54) (Fc fusion)”, “binds”; for “BAv59-Ig (from UniProt Q02223 5-54) (Fc fusion)”, “binds”.

Take “BAv61-Ig (from UniProt Q02223 5-54) (Fc fusion)”: the binding result is “binds”.

Consider “BAv56-Ig (from UniProt Q02223 5-54) (Fc fusion)”, for which the binding result is listed as “binds”. For “BAv25-Ig (from UniProt Q02223 5-54) (Fc fusion)” the value was “binds”; for “BAv46-Ig (from UniProt Q02223 5-54) (Fc fusion)”, “binds”. For “BAv42-Ig (from UniProt Q02223 5-54) (Fc fusion)” the value was “binds”; for “BAv40-Ig (from UniProt Q02223 5-54) (Fc fusion)”, “binds”; for “BAv38-Ig (from UniProt Q02223 5-54) (Fc fusion)”, “binds”.
